The target of this experiment is flag-HA-tagged SMAD4 (human) (UniProt Q13485). Description: co-IP; Hela cells cotransfected with flag-HA-tagged SMAD3 or SMAD4 and HA-tagged CSRP2BP; lysate incubated with anti-flag antibody (or control normal IgG) at 4 °C for 2 h, precipitated with protein A/G; Western blotting with anti-HA antibody.

Protein sequences, listed by entry. Tags and fused reporters are not part of them. Lines headed by an entry give the natural chain unless they say otherwise; changes in a name come on top.
UniProt Q13485: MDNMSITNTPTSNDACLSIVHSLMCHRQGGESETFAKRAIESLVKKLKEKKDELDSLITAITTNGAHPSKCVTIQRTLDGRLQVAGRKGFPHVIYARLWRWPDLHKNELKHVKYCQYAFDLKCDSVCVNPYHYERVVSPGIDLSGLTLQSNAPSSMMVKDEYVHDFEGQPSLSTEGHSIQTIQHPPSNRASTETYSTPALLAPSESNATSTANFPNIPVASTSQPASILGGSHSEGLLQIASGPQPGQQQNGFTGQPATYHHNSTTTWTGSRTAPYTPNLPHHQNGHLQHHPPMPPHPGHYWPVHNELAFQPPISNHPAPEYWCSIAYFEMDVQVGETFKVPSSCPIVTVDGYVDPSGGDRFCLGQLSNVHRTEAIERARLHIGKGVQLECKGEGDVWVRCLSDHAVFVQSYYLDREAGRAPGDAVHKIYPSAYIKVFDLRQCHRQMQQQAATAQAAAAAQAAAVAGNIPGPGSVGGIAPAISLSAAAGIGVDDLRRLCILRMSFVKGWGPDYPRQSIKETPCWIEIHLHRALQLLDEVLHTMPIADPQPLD

In publication PMC10580587 one finds binding data, which are given here for 1 molecule.

These are yes or no findings as the source states them, for the method shown. In cells and extracts the contact can be indirect. Binding calls can cover weak binding; strength is not graded here. Sequences can lack the tags named with a protein.

B1: HA-tagged CSRP2BP (protein, UniProt Q9H8E8 1-782)
chain: MDSSIHLSSLISRHDDEATRTSTSEGLEEGEVEGETLLIVESEDQASVDLSHDQSGDSLNSDEGDVSWMEEQLSYFCDKCQKWIPASQLREQLSYLKGDNFFRFTCSDCSADGKEQYERLKLTWQQVVMLAMYNLSLEGSGRQGYFRWKEDICAFIEKHWTFLLGNRKKTSTWWSTVAGCLSVGSPMYFRSGAQEFGEPGWWKLVHNKPPTMKPEGEKLSASTLKIKAASKPTLDPIITVEGLRKRASRNPVESAMELKEKRSRTQEAKDIRRAQKEAAGFLDRSTSSTPVKFISRGRRPDVILEKGEVIDFSSLSSSDRTPLTSPSPSPSLDFSAPGTPASHSATPSLLSEADLIPDVMPPQALFHDDDEMEGDGVIDPGMEYVPPPAGSVASGPVVGVRKKVRGPEQIKQEVESEEEKPDRMDIDSEDTDSNTSLQTRAREKRKPQLEKDTKPKEPRYTPVSIYEEKLLLKRLEACPGAVAMTPEARRLKRKLIVRQAKRDRGLPLFDLDQVVNAALLLVDGIYGAKEGGISRLPAGQATYRTTCQDFRILDRYQTSLPSRKGFRHQTTKFLYRLVGSEDMAVDQSIVSPYTSRILKPYIRRDYETKPPKLQLLSQIRSHLHRSDPHWTPEPDAPLDYCYVRPNHIPTINSMCQEFFWPGIDLSECLQYPDFSVVVLYKKVIIAFGFMVPDVKYNEAYISFLFVHPEWRRAGIATFMIYHLIQTCMGKDVTLHVSASNPAMLLYQKFGFKTEEYVLDFYDKYYPLESTECKHAFFLRLRR
Take B1: the binding result was “binds”.
